In PubChem BioAssay AID2685 (National Center for Advancing Translational Sciences (NCATS), 2010) one finds cell number change and AC50 data, which are given here for 16 molecules.

The list shows a part of the results. Shown are side measurements of this screen, not its main read-out; they come without a call. The list favours compounds with an active or inconclusive main result. Words in brackets tell the shape of the fitted curve; partial curves, single points and poor fits give uncertain potencies.

The nature of the assay: qHTS Assay for Lipid Storage Modulators in Drosophila S3 Cells.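 For cell number change: cells counted by Cell Tracker Red CMTPX staining in the red channel.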 The conditions noted are these: BODIPY lipid droplet fluorescence, 18-24 h; for cell number change: measured here: cell count max response, cells fed with added oleic acid. In a few lines: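 Drosophila S3 cells loaded with oleic acid (400 uM, as added) and compounds at several concentrations; lipid droplets imaged by 488-nm laser-scanning cytometry, 500–530 nm intensity and object ratio to cell channel. Percent activity normalized to 20 uM Triacsin C.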
(In qHTS, concentration-response curves come from the screen itself.)

Where [1] appears, read: measured here: lipid fluorescence (Fed channel) AC50, cells fed with added oleic acid.
Where [2] appears, read: measured here: cell number channel AC50, cells fed with added oleic acid.

Usually AC50 stands for the concentration giving half of the maximal activity seen. A higher AC50 goes with activity only at high concentration. On to `O=C(/C=C/c1c(F)cccc1Cl)Nc1nc2ccccc2[nH]1`, for which the cell number change is 5.09%. Further, under setting [1], the AC50 is 18.4 µM [rising, single point].
With `CCOc1ccccc1C(=O)N/N=C/c1coc2ccc(Cl)cc2c1=O`, the cell number change was -6.65%. Besides, the AC50 under setting [1] is 32.6 µM [falling, partial curve, poor fit].
As to `O=C(NCC1CCCO1)c1ccccc1-c1nc(-c2ccc(Cl)cc2)no1` (stereo not given), the AC50 under setting [1] is 5.17 µM [rising, partial curve].
For the molecule `CC1(C(=O)NC(=S)N(CCC#N)c2ccccc2)CC1(Cl)Cl` (stereo not given), the AC50 runs as follows: under setting [2], 1.16 µM [falling, full curve]; under setting [1], 6.51 µM [falling, single point].
Take `NS(=O)(=O)c1ccc(NC(=O)COC(=O)C2CC(=O)N(Cc3ccccc3)C2)cc1` (stereo not given): the cell number change is 52.1%.
On the same count and under the same terms, with `Cc1ccc(/C=N/n2nnnc2N)cc1[N+](=O)[O-]` the figure was -29.7%.
Turning to `COc1ccccc1NC(=O)C(C)NC(c1ccccc1)c1ccccc1` (stereo not given), the cell number change stood at 18.7%. The AC50 under setting [1] is 4.47 µM [rising, full curve, poor fit].
Consider `Cc1ccc(-c2cn(CCC(=O)O)c(-c3ccc(Cl)nc3)n2)cc1`, for which the cell number change was -18.5%. Moreover, the AC50 under setting [1] was 5.17 µM [rising, partial curve, poor fit].
Consider `Cc1cc(OCC(=O)O/N=C(\N)c2ccccc2)ccc1Br`, for which the cell number change was 9.35%. The AC50 under setting [1] was 4.11 µM [rising, full curve, poor fit].
Regarding `O=C(NN1C(=O)NC2(CCCCC2)C1=O)c1ccc(-c2ccc([N+](=O)[O-])cc2)o1`, the cell number change amounted to 7.6%. For the same molecule, the AC50 under setting [1] was 7.31 µM [rising, partial curve].
As for `CCCC(C(=O)O)n1c(O)c(C=C2N=c3ccccc3=N2)sc1=S` (stereo not given), the cell number change came out at 7.1%. Moreover, the AC50 under setting [1] is 0.651 µM [rising, single point].
As for `O=C(COC(=O)/C=C/C(=O)OCC(=O)NC12CC3CC(CC(C3)C1)C2)NC12CC3CC(CC(C3)C1)C2`, the cell number change was -43.5%. Further, the AC50 under setting [2] is 23.1 µM [falling, partial curve, poor fit]. For the same molecule, the AC50 under setting [1] is 18.4 µM [falling, partial curve].
As for `CCOc1ccccc1NS(=O)(=O)N(C)C`, the cell number change was found to be 10%. In addition, the AC50 under setting [1] is 0.00461 µM [rising, full curve, poor fit].
Regarding `C[C@]12CC[C@@H]3c4ccc(O)cc4CC[C@H]3[C@@H]1C[C@@H](O)[C@@H]2O[C@@H]1O[C@H](C(=O)O)[C@@H](O)[C@H](O)[C@H]1O`, the cell number change was 24%. In addition, the AC50 under setting [1] is 11.6 µM [rising, single point].
Regarding `CCOC(=O)C1=C(C)Nc2ccccc2N/C1=N\S(=O)(=O)c1ccc(Cl)cc1`, the cell number change was -6.87%. Also, under setting [1], the AC50 was 0.92 µM [falling, full curve].
As to `CN(C)S(=O)(=O)c1ccc(C(=O)N2CCC(c3nc4ccccc4o3)CC2)cc1`, the AC50 by setting is: under setting [2], 4.61 µM [rising, single point]; under setting [1], 6.51 µM [rising, single point].
